{"source": "ChEMBL document CHEMBL2029217", "about": "“Design, synthesis, and structure-activity relationships of novel spiro-piperidines as acetyl-CoA carboxylase inhibitors” (Bioorg Med Chem Lett, 2012)", "assay": "Lipophilicity, log D of the compound at pH 7.4", "conditions": "buffer", "data": [{"smiles": "CCNC(=O)Nc1sc2ccccc2c1C(=O)N1CCC(N2CCCC3(CC(=O)N(CC)C3=O)C2)CC1", "note": "(racemic)", "values": [{"measurement": "logD", "result": 2.82}]}]}
